This test concerns the target HPV16 minor capsid protein L2, wild type, 3xHA-tagged (L2-3xHA) (human papillomavirus type 16) (UniProt P03107). In words: affinity purification with mass spectrometry; anti-HA immunoprecipitation from lysates of HEK293 cells expressing wild-type L2-3xHA or RTR313EEE L2-3xHA; SDS-PAGE, in-gel trypsin digest, LC-MS/MS, label-free quantification (MaxQuant); n = 3 each.

Sequences of proteins named here, by UniProt entry; tags and fusion partners are left off.
UniProt P03107: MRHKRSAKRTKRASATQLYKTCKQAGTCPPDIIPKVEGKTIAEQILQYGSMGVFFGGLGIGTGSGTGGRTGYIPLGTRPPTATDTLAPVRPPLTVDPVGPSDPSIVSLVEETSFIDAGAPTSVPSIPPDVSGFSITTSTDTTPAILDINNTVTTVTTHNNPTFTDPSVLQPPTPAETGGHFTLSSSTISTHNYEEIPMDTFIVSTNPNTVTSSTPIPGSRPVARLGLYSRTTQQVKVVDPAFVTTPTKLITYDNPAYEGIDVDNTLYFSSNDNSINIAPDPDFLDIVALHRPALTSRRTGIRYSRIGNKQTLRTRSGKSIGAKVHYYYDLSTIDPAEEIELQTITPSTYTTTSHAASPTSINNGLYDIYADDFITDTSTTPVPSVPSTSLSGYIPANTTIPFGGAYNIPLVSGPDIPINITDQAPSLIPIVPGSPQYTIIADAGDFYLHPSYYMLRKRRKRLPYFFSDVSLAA
UniProt Q96Q89: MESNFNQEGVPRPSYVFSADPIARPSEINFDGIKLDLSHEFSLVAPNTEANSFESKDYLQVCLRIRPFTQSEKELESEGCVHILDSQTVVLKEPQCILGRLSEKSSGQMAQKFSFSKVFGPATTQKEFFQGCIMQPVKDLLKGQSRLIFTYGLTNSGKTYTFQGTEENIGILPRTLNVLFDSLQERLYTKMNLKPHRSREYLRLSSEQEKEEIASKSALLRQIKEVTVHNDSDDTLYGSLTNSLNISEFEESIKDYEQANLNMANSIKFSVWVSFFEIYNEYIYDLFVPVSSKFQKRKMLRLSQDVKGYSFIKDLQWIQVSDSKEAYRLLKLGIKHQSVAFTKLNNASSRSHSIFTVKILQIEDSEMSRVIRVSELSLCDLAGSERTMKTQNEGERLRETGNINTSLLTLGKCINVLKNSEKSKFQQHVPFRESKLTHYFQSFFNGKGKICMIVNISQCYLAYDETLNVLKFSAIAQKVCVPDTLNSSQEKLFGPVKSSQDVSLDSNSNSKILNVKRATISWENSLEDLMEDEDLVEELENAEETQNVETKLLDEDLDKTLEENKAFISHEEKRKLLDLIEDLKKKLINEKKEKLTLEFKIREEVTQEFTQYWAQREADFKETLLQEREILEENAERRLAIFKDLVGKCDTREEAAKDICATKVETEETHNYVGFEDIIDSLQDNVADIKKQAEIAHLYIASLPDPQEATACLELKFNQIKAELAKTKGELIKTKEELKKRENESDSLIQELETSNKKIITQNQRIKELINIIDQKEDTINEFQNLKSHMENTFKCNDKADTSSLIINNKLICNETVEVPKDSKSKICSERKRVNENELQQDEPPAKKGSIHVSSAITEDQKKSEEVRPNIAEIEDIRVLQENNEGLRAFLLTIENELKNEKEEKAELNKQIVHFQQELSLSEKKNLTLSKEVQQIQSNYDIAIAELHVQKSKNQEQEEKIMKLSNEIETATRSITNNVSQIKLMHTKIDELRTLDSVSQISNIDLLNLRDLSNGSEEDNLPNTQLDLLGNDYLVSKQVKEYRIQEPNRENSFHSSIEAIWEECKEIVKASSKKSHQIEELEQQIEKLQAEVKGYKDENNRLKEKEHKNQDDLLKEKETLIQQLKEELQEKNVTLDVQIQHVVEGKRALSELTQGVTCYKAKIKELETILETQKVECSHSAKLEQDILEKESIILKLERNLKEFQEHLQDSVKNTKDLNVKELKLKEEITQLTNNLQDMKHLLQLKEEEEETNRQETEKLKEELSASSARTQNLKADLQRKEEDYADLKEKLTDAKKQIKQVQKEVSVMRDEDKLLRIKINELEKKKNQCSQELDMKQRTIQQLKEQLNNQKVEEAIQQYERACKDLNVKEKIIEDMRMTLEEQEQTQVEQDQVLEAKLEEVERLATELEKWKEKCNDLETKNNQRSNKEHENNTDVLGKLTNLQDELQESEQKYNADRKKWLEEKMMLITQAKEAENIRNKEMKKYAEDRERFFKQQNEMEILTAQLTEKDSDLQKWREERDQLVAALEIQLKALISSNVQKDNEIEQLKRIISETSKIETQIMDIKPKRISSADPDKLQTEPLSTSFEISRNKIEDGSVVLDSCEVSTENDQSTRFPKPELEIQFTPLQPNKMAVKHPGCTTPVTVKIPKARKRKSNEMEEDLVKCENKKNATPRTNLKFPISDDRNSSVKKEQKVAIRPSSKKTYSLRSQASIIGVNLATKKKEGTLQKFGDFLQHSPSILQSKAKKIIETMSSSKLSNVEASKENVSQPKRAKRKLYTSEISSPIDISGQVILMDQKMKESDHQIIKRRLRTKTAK

These are yes or no findings as the source states them, for the method shown. Binding seen in cells or lysates may run through a third protein. These calls come from enrichment with a bait or labelling near it, and not all partners need be listed.

For the substance “kinesin KIF20B, endogenous (from UniProt Q96Q89 1-1820)”, the binding entry is “binds”.
